In assay [1] the target is active NOTCH1 intracellular domain (N1-ICD) (human (endogenous in primary CLL cells)) (UniProt P46531). The experiment in a line: co-IP; N1-ICD immunoprecipitated from whole-cell lysates (4 mg) of primary CLL cells with anti-NOTCH1 (Val1744, clone D3B8), 4 °C overnight, Protein A/G Plus Agarose; washed six times in 10 mM Tris-HCl pH 7.5, 150 mM NaCl, 5 mM EGTA, 0.1% IGEPAL CA-630; blot with anti-GSK3β (clone 3D10); normal rabbit IgG as negative control; n = 3.

Amino acid sequences for entries named in this document (tags omitted). Residues count along the entry.
UniProt P46531, residues 1754-2555: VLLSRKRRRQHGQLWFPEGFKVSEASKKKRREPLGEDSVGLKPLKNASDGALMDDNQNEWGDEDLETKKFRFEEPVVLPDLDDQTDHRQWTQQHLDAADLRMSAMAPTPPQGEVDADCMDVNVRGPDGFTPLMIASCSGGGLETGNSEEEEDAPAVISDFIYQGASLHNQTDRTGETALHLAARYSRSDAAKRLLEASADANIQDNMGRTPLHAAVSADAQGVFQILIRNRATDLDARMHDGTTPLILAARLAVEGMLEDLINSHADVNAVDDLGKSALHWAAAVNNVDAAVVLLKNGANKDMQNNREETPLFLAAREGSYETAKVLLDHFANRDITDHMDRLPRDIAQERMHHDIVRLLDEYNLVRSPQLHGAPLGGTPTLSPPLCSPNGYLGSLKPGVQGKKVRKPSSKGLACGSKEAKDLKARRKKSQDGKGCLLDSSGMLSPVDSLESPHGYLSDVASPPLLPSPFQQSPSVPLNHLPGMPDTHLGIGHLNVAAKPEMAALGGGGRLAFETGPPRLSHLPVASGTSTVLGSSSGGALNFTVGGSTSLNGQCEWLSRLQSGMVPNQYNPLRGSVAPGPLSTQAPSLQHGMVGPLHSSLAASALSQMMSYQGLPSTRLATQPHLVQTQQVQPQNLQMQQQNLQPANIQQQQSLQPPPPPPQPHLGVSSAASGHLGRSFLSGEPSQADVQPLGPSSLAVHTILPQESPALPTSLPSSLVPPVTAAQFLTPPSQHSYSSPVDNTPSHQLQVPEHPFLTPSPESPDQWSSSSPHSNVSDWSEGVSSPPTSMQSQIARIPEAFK
UniProt P49841: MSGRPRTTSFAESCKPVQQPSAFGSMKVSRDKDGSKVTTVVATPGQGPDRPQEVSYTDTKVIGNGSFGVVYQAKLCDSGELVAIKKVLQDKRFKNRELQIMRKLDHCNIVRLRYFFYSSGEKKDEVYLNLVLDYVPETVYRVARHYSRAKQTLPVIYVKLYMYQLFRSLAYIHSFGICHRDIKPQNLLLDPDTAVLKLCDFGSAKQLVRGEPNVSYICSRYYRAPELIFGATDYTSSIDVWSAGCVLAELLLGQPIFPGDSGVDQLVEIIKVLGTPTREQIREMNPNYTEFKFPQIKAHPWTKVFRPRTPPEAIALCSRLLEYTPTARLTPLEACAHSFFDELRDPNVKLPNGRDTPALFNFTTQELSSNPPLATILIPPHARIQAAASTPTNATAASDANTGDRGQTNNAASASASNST

Assay [2] has the same target. Kind of assay: proximity ligation; Duolink PLA on fixed, permeabilised primary CLL cells with rabbit anti-NOTCH1 (Val1744, clone D3B8) and mouse anti-GSK3β (clone 3D10); cells cultured 1.5 h with DMSO or 5 µM SB216763 (SB216763 decreased the PLA signals); n = 3.

Results are given in words; binding and its absence hold for the method and conditions named. In cells and extracts the contact can be indirect. Some results given as binding are weak or reduced against the parent protein; the word gives no strength.

As for “GSK3β (from UniProt P49841 1-420) (enzyme)”, the binding entry in assay [1] and in assay [2] was “binds” each time.

Values taken from publication PMC9436923.
